# Assay results taken from the supplement of paper PMC12819154, “High-throughput peptide-centric local stability assay extends protein–ligand identification to membrane proteins, tissues and bacteria” (Nature Structural & Molecular Biology, 2025).
# The chains behind the UniProt entries cited, without tags or fusion partners. Where a name states a change or a piece, a line headed by the entry shows the natural chain unless it says otherwise.
# UniProt Q9CQG2: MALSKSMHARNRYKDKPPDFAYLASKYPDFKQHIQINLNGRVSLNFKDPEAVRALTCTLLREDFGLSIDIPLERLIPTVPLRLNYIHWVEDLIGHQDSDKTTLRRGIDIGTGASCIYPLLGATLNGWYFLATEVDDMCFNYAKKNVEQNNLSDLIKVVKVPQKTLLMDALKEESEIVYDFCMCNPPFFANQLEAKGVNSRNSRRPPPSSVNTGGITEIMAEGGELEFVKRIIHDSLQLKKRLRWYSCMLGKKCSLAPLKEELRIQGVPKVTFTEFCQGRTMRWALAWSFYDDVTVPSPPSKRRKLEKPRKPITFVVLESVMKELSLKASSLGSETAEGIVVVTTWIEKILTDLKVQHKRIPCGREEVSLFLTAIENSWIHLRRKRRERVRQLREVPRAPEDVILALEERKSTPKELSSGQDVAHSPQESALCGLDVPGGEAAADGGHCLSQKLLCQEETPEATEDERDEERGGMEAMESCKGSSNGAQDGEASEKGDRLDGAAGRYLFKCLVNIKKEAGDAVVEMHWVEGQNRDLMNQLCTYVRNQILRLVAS
# UniProt Q99P25: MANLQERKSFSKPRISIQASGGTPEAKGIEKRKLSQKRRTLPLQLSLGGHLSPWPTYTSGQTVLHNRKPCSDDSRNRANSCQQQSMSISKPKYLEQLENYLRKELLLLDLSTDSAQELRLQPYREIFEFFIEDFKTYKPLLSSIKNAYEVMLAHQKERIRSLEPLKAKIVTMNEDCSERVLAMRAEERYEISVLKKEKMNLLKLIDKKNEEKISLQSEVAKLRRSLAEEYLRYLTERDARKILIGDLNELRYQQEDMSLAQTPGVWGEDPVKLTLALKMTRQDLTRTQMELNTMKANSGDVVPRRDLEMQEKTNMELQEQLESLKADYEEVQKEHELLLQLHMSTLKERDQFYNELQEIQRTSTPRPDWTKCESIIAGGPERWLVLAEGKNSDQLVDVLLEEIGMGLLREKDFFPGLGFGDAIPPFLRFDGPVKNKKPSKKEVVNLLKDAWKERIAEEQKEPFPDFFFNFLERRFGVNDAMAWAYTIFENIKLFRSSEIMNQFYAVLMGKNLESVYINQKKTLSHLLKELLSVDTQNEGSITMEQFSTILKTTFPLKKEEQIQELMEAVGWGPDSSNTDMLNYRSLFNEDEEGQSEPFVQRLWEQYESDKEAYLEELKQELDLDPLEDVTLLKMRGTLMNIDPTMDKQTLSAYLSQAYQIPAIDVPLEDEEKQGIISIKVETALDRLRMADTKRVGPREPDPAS
# UniProt Q9CQU0: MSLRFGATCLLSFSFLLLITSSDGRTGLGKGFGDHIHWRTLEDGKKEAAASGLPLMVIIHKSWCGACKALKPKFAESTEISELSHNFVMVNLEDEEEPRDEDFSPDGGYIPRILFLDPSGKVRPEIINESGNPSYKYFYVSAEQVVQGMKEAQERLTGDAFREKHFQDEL
# UniProt Q9CPQ1: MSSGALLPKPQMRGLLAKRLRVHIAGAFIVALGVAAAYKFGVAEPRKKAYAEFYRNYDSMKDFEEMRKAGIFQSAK
# Some of the results follow. Small differences around the control level are noise.
# Compound: CN[C@@H]1C[C@H]2O[C@@](C)([C@@H]1OC)n1c3ccccc3c3c4c(c5c6ccccc6n2c5c31)C(=O)NC4 [staurosporine]
# Assay: log2 fold change of tryptic peptide abundance, ligand vs vehicle (limited proteolysis) (log2 ratio); higher = more trypsin-susceptible (destabilized)
# Conditions: ligand concentration: 20 uM; sample: mouse liver crude lysate; replicate design: treated separately
row,Target,log2 fold change
1,"UniProt Q9CQG2 (peptide sequence: LRWYSCMLGKK, peptide start residue: 242)",-0.516
2,"UniProt Q99P25 (peptide sequence: ERIAEEQK, peptide start residue: 453)",-0.085
3,"UniProt Q9CQU0 (peptide sequence: VRPEIINESGNPSYK, peptide start residue: 122)",-0.167
4,"UniProt Q9CPQ1 (peptide sequence: NYDSMKDFEEMR, peptide start residue: 56)",-0.179
